Values from PubChem BioAssay AID504764 (Drosophila RNAi Screening Center, 2011).
In all, the deposit lists about 22,000 reagents; shown is an unselected part of those with a known target gene and a result. In the full data, 403 (1.9%) are marked active. 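Unnormalised raw counts per well; ratio z-scores behind the hit calls and whether each hit raises or lowers signal are not deposited.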 The record does not give: the amount of reagent.

Screen: 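Genome-wide screen for regulators of Notch-driven gene expression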 (primary screen)
Cell system: Drosophila Kc167 cells
Reagent: long dsRNA against Drosophila genes
Timing: about 5 days (4 days dsRNA, then 24 h after transfection)
Conditions: transfection of constitutively active membrane-tethered Notch lacking the extracellular domain, read 24 h later
Measurement: 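Light from a Notch-responsive E(spl)m3 luciferase reporter under active Notch, with control-promoter and no-Notch reporter wells to normalise; raw counts from paired wells a and b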
Direction: induced reporter light, run 1, well a and induced reporter light, run 1, well b: higher = more light from the Notch target reporter with active Notch; control promoter light, run 1, well a and control promoter light, run 1, well b: higher = more light from the viral control promoter (cell number, transfection, viability); uninduced reporter light, run 1, well a: higher = more light from the Notch target reporter without active Notch
Hit rule: 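Wells with low control signal or poorly matching duplicates excluded; duplicates averaged; per source plate, z beyond ±2 for induced/control log2 ratio or beyond ±1.8 for induced/uninduced marks a hit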
Meaning of the calls: active = modifier hit (raised or lowered Notch signal); inactive = not a hit

Against lectin-37Da [DRSC03278] the deposit lists induced reporter light, run 1, well a = 50095; induced reporter light, run 1, well b = 35555; control promoter light, run 1, well a = 46640; control promoter light, run 1, well b = 37460; uninduced reporter light, run 1, well a = 2015; inactive. Depletion of Nipped-A [DRSC04882] came out at: induced reporter light, run 1, well a = 2.24e5; induced reporter light, run 1, well b = 2.25e5; control promoter light, run 1, well a = 1.95e5; control promoter light, run 1, well b = 1.75e5; uninduced reporter light, run 1, well a = 16750; inactive. Against Nipped-A [DRSC04883] the deposit lists induced reporter light, run 1, well a = 1.48e5; induced reporter light, run 1, well b = 1.79e5; control promoter light, run 1, well a = 1.62e5; control promoter light, run 1, well b = 1.82e5; uninduced reporter light, run 1, well a = 14710; active. After knock-down of Nipped-A [DRSC04884], the screen gave induced reporter light, run 1, well a = 71065; induced reporter light, run 1, well b = 71895; control promoter light, run 1, well a = 1.17e5; control promoter light, run 1, well b = 1.10e5; uninduced reporter light, run 1, well a = 5800; active. Against Nipped-A [DRSC07738] the deposit lists induced reporter light, run 1, well a = 1.45e5; induced reporter light, run 1, well b = 1.30e5; control promoter light, run 1, well a = 3.58e5; control promoter light, run 1, well b = 3.06e5; uninduced reporter light, run 1, well a = 9600; inactive. Knock-down of Nipped-A [DRSC22386] resulted in: active.

After knock-down of east (enhanced adult sensory threshold) [DRSC18770], the screen gave induced reporter light, run 1, well a = 58000; induced reporter light, run 1, well b = 72320; control promoter light, run 1, well a = 1.17e5; control promoter light, run 1, well b = 1.01e5; uninduced reporter light, run 1, well a = 5100; inactive. Against Obp19b (Odorant-binding protein 19b) [DRSC20536], the values are induced reporter light, run 1, well a = 82680; induced reporter light, run 1, well b = 1.00e5; control promoter light, run 1, well a = 1.18e5; control promoter light, run 1, well b = 1.75e5; uninduced reporter light, run 1, well a = 10425; inactive. For Coop (Corepressor of Pangolin) [DRSC06604] the deposit lists induced reporter light, run 1, well a = 2.05e5; induced reporter light, run 1, well b = 1.62e5; control promoter light, run 1, well a = 1.35e5; control promoter light, run 1, well b = 1.69e5; uninduced reporter light, run 1, well a = 15500; inactive. For CG9171 [DRSC03152] the deposit lists induced reporter light, run 1, well a = 63765; induced reporter light, run 1, well b = 72855; control promoter light, run 1, well a = 67155; control promoter light, run 1, well b = 65145; uninduced reporter light, run 1, well a = 4670; inactive. Against CG11449 [DRSC11662], the values are induced reporter light, run 1, well a = 1.15e5; induced reporter light, run 1, well b = 87230; control promoter light, run 1, well a = 1.30e5; control promoter light, run 1, well b = 1.38e5; uninduced reporter light, run 1, well a = 6935; inactive. For CRMP (Collapsin Response Mediator Protein) [DRSC12073], the entry reads induced reporter light, run 1, well a = 1.09e5; induced reporter light, run 1, well b = 98245; control promoter light, run 1, well a = 88810; control promoter light, run 1, well b = 87770; uninduced reporter light, run 1, well a = 9380; inactive.

After knock-down of CRMP (Collapsin Response Mediator Protein) [DRSC12345] the results were induced reporter light, run 1, well a = 1.28e5; induced reporter light, run 1, well b = 1.17e5; control promoter light, run 1, well a = 76145; control promoter light, run 1, well b = 69320; uninduced reporter light, run 1, well a = 9460; inactive. With knock-down of Mtp (Microsomal triacylglycerol transfer protein) [DRSC03216], the record shows induced reporter light, run 1, well a = 2.21e5; induced reporter light, run 1, well b = 2.63e5; control promoter light, run 1, well a = 2.06e5; control promoter light, run 1, well b = 2.26e5; uninduced reporter light, run 1, well a = 15020; inactive. With knock-down of p53 [DRSC17024] the results were induced reporter light, run 1, well a = 2.03e5; induced reporter light, run 1, well b = 2.00e5; control promoter light, run 1, well a = 3.28e5; control promoter light, run 1, well b = 2.71e5; uninduced reporter light, run 1, well a = 14310; inactive. CG2278 [DRSC18226] showed induced reporter light, run 1, well a = 1.59e5; induced reporter light, run 1, well b = 1.57e5; control promoter light, run 1, well a = 2.48e5; control promoter light, run 1, well b = 2.25e5; uninduced reporter light, run 1, well a = 8980; inactive. After knock-down of pbl (pebble) [DRSC11381], the record shows induced reporter light, run 1, well a = 53685; induced reporter light, run 1, well b = 36860; control promoter light, run 1, well a = 49655; control promoter light, run 1, well b = 20565; uninduced reporter light, run 1, well a = 3865; inactive. Against Rcd5 (Reduction in Cnn dots 5) [DRSC08180] the deposit lists induced reporter light, run 1, well a = 1.78e5; induced reporter light, run 1, well b = 1.45e5; control promoter light, run 1, well a = 1.11e5; control promoter light, run 1, well b = 34265; uninduced reporter light, run 1, well a = 13600; inactive.
